Data reported in PMC12651750 (Cells, 2025).

Test system: Jurkat cells
Experiment: Whole proteomic analysis (mass spectrometry)
Format: cell-based, human
Details: 48 h
Experimental: The cell cultivation was completed in a 60 mm plate; the number of cells accounted for roughly 30–40% of the orifice. We stimulated cells with 1 μM and 5 μM of NBU-2 and 0.1% DMSO. […] After 48 h, the cells were collected, about 200 μL of NP-40 Lysis Buffer containing phosphatase inhibitor and protease inhibitor was added, and the cells were lysed to release the proteins. Measure the protein concentration of each group of samples using the BCA protein quantification method. The disulfide bonds in the protein structure were reduced using TCEP and then alkylated with IAA. Samples were added to a centrifugal filtration unit with an ultrafiltration membrane, and proteins were digested using trypsin 2 times, the first time for 4 h and the second time overnight with the addition of an appropriate amount of trypsin. […] Samples were reconstituted using 0.1% formic acid, and approximately 1 μg of protein was taken for detection using mass spectrometry.
Mass spectrometry analysis was performed using an Orbitrap Fusion Lumos mass spectrometer (Thermo Fisher Scientific, Shanghai, China). Chromatographic separations were performed on an Acclaim PepMap C18 column using a 60 min linear gradient elution program: the proportion of mobile phase B (acetonitrile containing 0.1% formic acid) was increased from 2% to 35%, and the flow rate was maintained at 250 nL/min. Raw data were processed using Proteome Discoverer 2.3 software (Thermo Fisher Scientific, Shanghai, China) and compared with the UniProt human protein database. Peptide-mass spectrometry matching (PSM) was filtered using the Percolator algorithm, with a false positive rate (FDR) of less than 1% [14].

## Cc1cccc2c(=O)c3c(NCCCCCC(=O)NO)ccc([N+](=O)[O-])c3[nH]c12 [NBU-2, N-hydroxy-6-((5-methyl-4-nitro-9-oxo-9,10-dihydroacridin-1-yl)amino)hexanamide]
1 μM and 5 μM
  Proteins down-regulated after drug treatment: 81
  Proteins up-regulated after drug treatment: 64
P < 0.05 and |Log2 FC| > 1
  Differentially expressed proteins (same trend in 1 μM and 5 μM groups): 145
